ChEMBL document CHEMBL5550189, “Discovery of GS-7682, a Novel 4'-Cyano-Modified C-Nucleoside Prodrug with Broad Activity against Pneumo- and Picornaviruses and Efficacy in RSV-Infected African Green Monkeys” (J Med Chem, 2024)

System: SARS-CoV-2
Assay: Anti-viral activity against SARS-CoV-2 infected in human A549 cells expressing hACE2 by firefly reporter assay
Type: functional, organism-based
Conditions: Severe acute respiratory syndrome coronavirus 2, A549

**Q.** For CCC(CC)COC(=O)[C@H](C)N[P@](=O)(OC[C@H]1O[C@@](C#N)(c2ccc3c(N)ncnn23)[C@H](O)[C@@H]1O)Oc1ccccc1 [REMDESIVIR], which EC50 is on record?
**A.** 80 nM
